# The supplement of paper PMC8728848
# This is one part of the list.
# B1: MtEccB1 (Mycobacterium tuberculosis H37Rv), O69734 (protein)
# chain: MGLRLTTKVQVSGWRFLLRRLEHAIVRRDTRMFDDPLQFYSRSIALGIVVAVLILAGAALLAYFKPQGKLGGTSLFTDRATNQLYVLLSGQLHPVYNLTSARLVLGNPANPATVKSSELSKLPMGQTVGIPGAPYATPVSAGSTSIWTLCDTVARADSTSPVVQTAVIAMPLEIDASIDPLQSHEAVLVSYQGETWIVTTKGRHAIDLTDRALTSSMGIPVTARPTPISEGMFNALPDMGPWQLPPIPAAGAPNSLGLPDDLVIGSVFQIHTDKGPQYYVVLPDGIAQVNATTAAALRATQAHGLVAPPAMVPSLVVRIAERVYPSPLPDEPLKIVSRPQDPALCWSWQRSAGDQSPQSTVLSGRHLPISPSAMNMGIKQIHGTATVYLDGGKFVALQSPDPRYTESMYYIDPQGVRYGVPNAETAKSLGLSSPQNAPWEIVRLLVDGPVLSKDAALLEHDTLPADPSPRKVPAGASGAP
# Assays:
# Experiment in all cases: glycan array binding signal (z-score within array); higher = stronger binding
# Conditions in all cases: glycan notation: IUPAC condensed, linker removed
# [1] = target: Gal(b1-3)GlcNAc(b1-6)GalNAc
# Procedure, shortened: (§1)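 Columns mapping to the same glycan were averaged after glycan names were converted to IUPAC-condensed notation. The data come from 3228 arrays in the Consortium for Functional Glycomics database, limited to those with an available protein sequence. Binding is reported as a within-array Z-score averaged across arrays of one protein sequence and across linkers.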
# [2] = target: Gal(b1-3)GlcNAc(b1-6)[Gal(b1-3)]GalNAc
# Procedure, shortened: as §1
# [3] = target: Gal(b1-3)GlcNAc6S
# Procedure, shortened: as §1
# [4] = target: Gal(b1-3)[Fuc(a1-4)]GlcNAc
# Procedure, shortened: as §1
# [5] = target: Gal(b1-3)[Fuc(a1-4)]GlcNAc(b1-2)Man
# Procedure, shortened: as §1
# [6] = target: Gal(b1-3)[Fuc(a1-4)]GlcNAc(b1-2)Man(a1-3)[Gal(b1-3)[Fuc(a1-4)]GlcNAc(b1-2)Man(a1-6)]Man(b1-4)GlcNAc(b1-4)[Fuc(a1-6)]GlcNAc
# Procedure, shortened: as §1
# [7] = target: Gal(b1-3)[Fuc(a1-4)]GlcNAc(b1-3)Gal(b1-3)[Fuc(a1-4)]GlcNAc
# Procedure, shortened: as §1
# [8] = target: Gal(b1-3)[Fuc(a1-4)]GlcNAc(b1-3)Gal(b1-4)[Fuc(a1-3)]GlcNAc
# Procedure, shortened: as §1
# [9] = target: Gal(b1-3)[Fuc(a1-4)]GlcNAc(b1-6)GalNAc
# Procedure, shortened: as §1
# [10] = target: Gal(b1-3)[GlcNAc(b1-6)]GalNAc
# Procedure, shortened: as §1
# [11] = target: Gal(b1-3)[Neu5Ac(a2-6)]GalNAc
# Procedure, shortened: as §1
# [12] = target: Gal(b1-3)[Neu5Ac(a2-6)]GlcNAc(b1-4)Gal(b1-4)Glc
# Procedure, shortened: as §1
# [13] = target: Gal(b1-3)[Neu5Ac(b2-6)]GalNAc
# Procedure, shortened: as §1
# [14] = target: Gal(b1-4)Gal
# Procedure, shortened: as §1
# [15] = target: Gal(b1-4)GalNAc(a1-3)[Fuc(a1-2)]Gal(b1-4)GlcNAc
# Procedure, shortened: as §1
# [16] = target: Gal(b1-4)GalNAc(b1-3)[Fuc(a1-2)]Gal(b1-4)GlcNAc
# Procedure, shortened: as §1
# [17] = target: Gal(b1-4)Glc
# Procedure, shortened: as §1
# [18] = target: Gal(b1-4)Glc6S
# Procedure, shortened: as §1
# [19] = target: Gal(b1-4)GlcNAc
# Procedure, shortened: as §1
# [20] = target: Gal(b1-4)GlcNAc(a1-6)Gal(b1-4)GlcNAc
# Procedure, shortened: as §1
# [21] = target: Gal(b1-4)GlcNAc(b1-2)Man
# Procedure, shortened: as §1
# [22] = target: Gal(b1-4)GlcNAc(b1-2)Man(a1-3)Man(b1-4)GlcNAc(b1-4)GlcNAc
# Procedure, shortened: as §1
# [23] = target: Gal(b1-4)GlcNAc(b1-2)Man(a1-3)[Gal(b1-4)GlcNAc(b1-2)Man(a1-6)]Man(b1-4)GlcNAc(b1-4)GlcNAc
# Procedure, shortened: as §1
# [24] = target: Gal(b1-4)GlcNAc(b1-2)Man(a1-3)[Gal(b1-4)GlcNAc(b1-2)Man(a1-6)]Man(b1-4)GlcNAc(b1-4)[Fuc(a1-6)]GlcNAc
# Procedure, shortened: as §1
# [25] = target: Gal(b1-4)GlcNAc(b1-2)Man(a1-3)[Gal(b1-4)GlcNAc(b1-2)Man(a1-6)][Gal(b1-4)GlcNAc(b1-4)]Man(b1-4)GlcNAc(b1-4)[Fuc(a1-6)]GlcNAc
# Procedure, shortened: as §1
# [26] = target: Gal(b1-4)GlcNAc(b1-2)Man(a1-3)[Gal(b1-4)GlcNAc(b1-2)Man(a1-6)][GlcNAc(b1-4)]Man(b1-4)GlcNAc(b1-4)[Fuc(a1-6)]GlcNAc
# Procedure, shortened: as §1
# [27] = target: Gal(b1-4)GlcNAc(b1-2)Man(a1-3)[GlcNAc(b1-2)Man(a1-6)]Man(b1-4)GlcNAc(b1-4)GlcNAc
# Procedure, shortened: as §1
# [28] = target: Gal(b1-4)GlcNAc(b1-2)Man(a1-3)[GlcNAc(b1-4)][Gal(b1-4)GlcNAc(b1-2)Man(a1-6)]Man(b1-4)GlcNAc(b1-4)GlcNAc
# Procedure, shortened: as §1
# [29] = target: Gal(b1-4)GlcNAc(b1-2)Man(a1-3)[Man(a1-6)]Man(b1-4)GlcNAc(b1-4)GlcNAc
# Procedure, shortened: as §1
# [30] = target: Gal(b1-4)GlcNAc(b1-2)Man(a1-6)Man(b1-4)GlcNAc(b1-4)GlcNAc
# Procedure, shortened: as §1
# [31] = target: Gal(b1-4)GlcNAc(b1-2)Man(a1-6)[GlcNAc(b1-2)Man(a1-3)]Man(b1-4)GlcNAc(b1-4)GlcNAc
# Procedure, shortened: as §1
# [32] = target: Gal(b1-4)GlcNAc(b1-2)Man(a1-6)[Man(a1-3)]Man(b1-4)GlcNAc(b1-4)GlcNAc
# Procedure, shortened: as §1
# [33] = target: Gal(b1-4)GlcNAc(b1-2)[Gal(b1-4)GlcNAc(b1-4)]Man(a1-3)[Gal(b1-4)GlcNAc(b1-2)Man(a1-6)]Man(b1-4)GlcNAc(b1-4)GlcNAc
# Procedure, shortened: as §1
# [34] = target: Gal(b1-4)GlcNAc(b1-2)[Gal(b1-4)GlcNAc(b1-4)]Man(a1-3)[Gal(b1-4)GlcNAc(b1-2)[Gal(b1-4)GlcNAc(b1-6)]Man(a1-6)]Man(b1-4)GlcNAc(b1-4)GlcNAc
# Procedure, shortened: as §1
# [35] = target: Gal(b1-4)GlcNAc(b1-2)[Gal(b1-4)GlcNAc(b1-4)]Man(a1-3)[GlcNAc(b1-4)][Gal(b1-4)GlcNAc(b1-2)Man(a1-6)]Man(b1-4)GlcNAc(b1-4)GlcNAc
# Procedure, shortened: as §1
# [36] = target: Gal(b1-4)GlcNAc(b1-2)[Gal(b1-4)GlcNAc(b1-4)]Man(a1-3)[GlcNAc(b1-4)][Gal(b1-4)GlcNAc(b1-2)[Gal(b1-4)GlcNAc(b1-6)]Man(a1-6)]Man(b1-4)GlcNAc(b1-4)GlcNAc
# Procedure, shortened: as §1
# [37] = target: Gal(b1-4)GlcNAc(b1-2)[Gal(b1-4)GlcNAc(b1-6)]Man(a1-6)[Gal(b1-4)GlcNAc(b1-2)Man(a1-3)]Man(b1-4)GlcNAc(b1-4)GlcNAc
# Procedure, shortened: as §1
# [38] = target: Gal(b1-4)GlcNAc(b1-2)[Gal(b1-4)GlcNAc(b1-6)]Man(a1-6)[Gal(b1-4)GlcNAc(b1-2)Man(a1-3)]Man(b1-4)GlcNAc(b1-4)[Fuc(a1-6)]GlcNAc
# Procedure, shortened: as §1
# [39] = target: Gal(b1-4)GlcNAc(b1-2)[Gal(b1-4)GlcNAc(b1-6)]Man(a1-6)[GlcNAc(b1-4)][Gal(b1-4)GlcNAc(b1-2)Man(a1-3)]Man(b1-4)GlcNAc(b1-4)GlcNAc
# Procedure, shortened: as §1
# [40] = target: Gal(b1-4)GlcNAc(b1-2)[Gal(b1-4)GlcNAc(b1-6)]Man(a1-6)[GlcNAc(b1-4)][Gal(b1-4)GlcNAc(b1-2)[Gal(b1-4)GlcNAc(b1-4)]Man(a1-3)]Man(b1-4)GlcNAc(b1-4)[Fuc(a1-6)]GlcNAc
# Procedure, shortened: as §1
# [41] = target: Gal(b1-4)GlcNAc(b1-3)Gal(b1-3)GalNAc
# Procedure, shortened: as §1
# [42] = target: Gal(b1-4)GlcNAc(b1-3)Gal(b1-3)GlcNAc
# Procedure, shortened: as §1
# [43] = target: Gal(b1-4)GlcNAc(b1-3)Gal(b1-4)Glc
# Procedure, shortened: as §1
# [44] = target: Gal(b1-4)GlcNAc(b1-3)Gal(b1-4)GlcNAc
# Procedure, shortened: as §1
# [45] = target: Gal(b1-4)GlcNAc(b1-3)Gal(b1-4)GlcNAc(b1-2)Man(a1-3)[Gal(b1-4)GlcNAc(b1-3)Gal(b1-4)GlcNAc(b1-2)Man(a1-6)]Man(b1-4)GlcNAc(b1-4)GlcNAc
# Procedure, shortened: as §1
binder,measurement,setting,value
B1,glycan array binding signal (z-score),[1],0.625
same,glycan array binding signal (z-score),[2],-1.36
same,glycan array binding signal (z-score),[3],-0.552
same,glycan array binding signal (z-score),[4],-0.281
same,glycan array binding signal (z-score),[5],-0.172
same,glycan array binding signal (z-score),[6],-0.202
same,glycan array binding signal (z-score),[7],-1
same,glycan array binding signal (z-score),[8],-0.38
same,glycan array binding signal (z-score),[9],0.341
same,glycan array binding signal (z-score),[10],0.055
same,glycan array binding signal (z-score),[11],-0.008
same,glycan array binding signal (z-score),[12],-0.866
same,glycan array binding signal (z-score),[13],0.512
same,glycan array binding signal (z-score),[14],-1.14
same,glycan array binding signal (z-score),[15],-0.148
same,glycan array binding signal (z-score),[16],0.471
same,glycan array binding signal (z-score),[17],-0.289
same,glycan array binding signal (z-score),[18],0.054
same,glycan array binding signal (z-score),[19],0.13
same,glycan array binding signal (z-score),[20],0.001
same,glycan array binding signal (z-score),[21],1.96
same,glycan array binding signal (z-score),[22],-1.1
same,glycan array binding signal (z-score),[23],-1.33
same,glycan array binding signal (z-score),[24],-0.547
same,glycan array binding signal (z-score),[25],-0.314
same,glycan array binding signal (z-score),[26],1.03
same,glycan array binding signal (z-score),[27],-0.401
same,glycan array binding signal (z-score),[28],-0.452
same,glycan array binding signal (z-score),[29],-0.911
same,glycan array binding signal (z-score),[30],-0.429
same,glycan array binding signal (z-score),[31],0.57
same,glycan array binding signal (z-score),[32],2.86
same,glycan array binding signal (z-score),[33],-0.518
same,glycan array binding signal (z-score),[34],-0.134
same,glycan array binding signal (z-score),[35],0.173
same,glycan array binding signal (z-score),[36],-0.941
same,glycan array binding signal (z-score),[37],-0.552
same,glycan array binding signal (z-score),[38],0.172
same,glycan array binding signal (z-score),[39],-1.21
same,glycan array binding signal (z-score),[40],-1.2
same,glycan array binding signal (z-score),[41],-0.574
same,glycan array binding signal (z-score),[42],-1.23
same,glycan array binding signal (z-score),[43],0.106
same,glycan array binding signal (z-score),[44],0.131
same,glycan array binding signal (z-score),[45],0.695

# A stretch of the results above:
binder,measurement,setting,value
B1,glycan array binding signal (z-score),[2],-1.36
same,glycan array binding signal (z-score),[3],-0.552
same,glycan array binding signal (z-score),[4],-0.281
